Results from paper doi:10.1101/2021.03.06.434066.
No constants are given. Whether binding was seen depends on the method and setting. Binding seen in cells or lysates may run through a third protein. Some entries that bind do so weakly or less than the wild type. For some of these results: Tags and fused reporters may be left off the sequences shown. Values belong to the molecule of their own block, whether it stands above or below them.

By UniProt entry, the sequences of proteins in these tests, tags left out.
UniProt P62491: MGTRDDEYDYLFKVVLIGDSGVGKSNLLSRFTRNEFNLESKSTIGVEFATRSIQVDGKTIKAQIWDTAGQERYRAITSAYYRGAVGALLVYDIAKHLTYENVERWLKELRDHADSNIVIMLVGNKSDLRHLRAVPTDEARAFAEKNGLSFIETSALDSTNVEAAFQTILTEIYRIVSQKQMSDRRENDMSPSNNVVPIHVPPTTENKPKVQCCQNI
UniProt Q96A65: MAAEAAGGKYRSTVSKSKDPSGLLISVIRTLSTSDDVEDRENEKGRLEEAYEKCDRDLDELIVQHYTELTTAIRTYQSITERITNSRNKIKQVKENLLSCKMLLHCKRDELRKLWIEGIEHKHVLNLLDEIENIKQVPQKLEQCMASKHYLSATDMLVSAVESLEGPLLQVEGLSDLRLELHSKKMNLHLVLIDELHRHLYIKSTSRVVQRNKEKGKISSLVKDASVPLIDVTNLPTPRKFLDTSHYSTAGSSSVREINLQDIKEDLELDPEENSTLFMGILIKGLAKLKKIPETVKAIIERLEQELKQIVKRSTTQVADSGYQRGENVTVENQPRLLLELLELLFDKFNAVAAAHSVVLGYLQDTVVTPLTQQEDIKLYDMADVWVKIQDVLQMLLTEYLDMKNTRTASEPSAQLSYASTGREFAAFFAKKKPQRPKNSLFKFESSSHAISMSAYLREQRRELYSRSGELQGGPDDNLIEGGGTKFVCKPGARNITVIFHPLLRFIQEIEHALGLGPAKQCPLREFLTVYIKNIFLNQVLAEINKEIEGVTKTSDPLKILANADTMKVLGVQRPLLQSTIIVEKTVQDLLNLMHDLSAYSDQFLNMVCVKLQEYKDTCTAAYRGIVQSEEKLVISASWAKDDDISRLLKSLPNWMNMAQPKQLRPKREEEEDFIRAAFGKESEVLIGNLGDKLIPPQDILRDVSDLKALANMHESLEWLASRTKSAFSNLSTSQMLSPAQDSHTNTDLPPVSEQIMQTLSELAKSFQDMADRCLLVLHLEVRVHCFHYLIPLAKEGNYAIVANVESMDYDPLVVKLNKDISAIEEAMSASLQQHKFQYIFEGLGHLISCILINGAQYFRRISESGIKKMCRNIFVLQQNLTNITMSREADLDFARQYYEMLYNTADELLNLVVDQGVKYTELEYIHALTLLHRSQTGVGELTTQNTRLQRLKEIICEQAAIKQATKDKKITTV
UniProt Q9UPT5: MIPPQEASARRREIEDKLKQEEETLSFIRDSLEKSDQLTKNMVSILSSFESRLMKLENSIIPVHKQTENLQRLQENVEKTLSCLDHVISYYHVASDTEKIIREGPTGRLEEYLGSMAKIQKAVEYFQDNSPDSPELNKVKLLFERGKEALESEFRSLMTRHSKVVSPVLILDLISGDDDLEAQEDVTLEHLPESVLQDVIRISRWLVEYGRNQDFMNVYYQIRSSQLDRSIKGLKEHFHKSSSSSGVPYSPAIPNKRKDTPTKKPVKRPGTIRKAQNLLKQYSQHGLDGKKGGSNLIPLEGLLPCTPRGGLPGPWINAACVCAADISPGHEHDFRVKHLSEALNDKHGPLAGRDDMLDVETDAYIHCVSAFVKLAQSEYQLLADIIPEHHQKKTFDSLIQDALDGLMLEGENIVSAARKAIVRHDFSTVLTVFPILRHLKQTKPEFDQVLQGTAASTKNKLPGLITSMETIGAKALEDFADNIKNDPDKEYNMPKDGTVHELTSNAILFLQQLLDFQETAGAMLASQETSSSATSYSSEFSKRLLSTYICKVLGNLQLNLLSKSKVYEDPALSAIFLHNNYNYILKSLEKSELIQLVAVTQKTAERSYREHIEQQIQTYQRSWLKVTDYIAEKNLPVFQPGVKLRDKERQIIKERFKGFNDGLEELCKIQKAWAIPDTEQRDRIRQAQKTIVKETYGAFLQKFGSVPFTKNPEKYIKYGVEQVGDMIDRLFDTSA
UniProt Q8TAG9: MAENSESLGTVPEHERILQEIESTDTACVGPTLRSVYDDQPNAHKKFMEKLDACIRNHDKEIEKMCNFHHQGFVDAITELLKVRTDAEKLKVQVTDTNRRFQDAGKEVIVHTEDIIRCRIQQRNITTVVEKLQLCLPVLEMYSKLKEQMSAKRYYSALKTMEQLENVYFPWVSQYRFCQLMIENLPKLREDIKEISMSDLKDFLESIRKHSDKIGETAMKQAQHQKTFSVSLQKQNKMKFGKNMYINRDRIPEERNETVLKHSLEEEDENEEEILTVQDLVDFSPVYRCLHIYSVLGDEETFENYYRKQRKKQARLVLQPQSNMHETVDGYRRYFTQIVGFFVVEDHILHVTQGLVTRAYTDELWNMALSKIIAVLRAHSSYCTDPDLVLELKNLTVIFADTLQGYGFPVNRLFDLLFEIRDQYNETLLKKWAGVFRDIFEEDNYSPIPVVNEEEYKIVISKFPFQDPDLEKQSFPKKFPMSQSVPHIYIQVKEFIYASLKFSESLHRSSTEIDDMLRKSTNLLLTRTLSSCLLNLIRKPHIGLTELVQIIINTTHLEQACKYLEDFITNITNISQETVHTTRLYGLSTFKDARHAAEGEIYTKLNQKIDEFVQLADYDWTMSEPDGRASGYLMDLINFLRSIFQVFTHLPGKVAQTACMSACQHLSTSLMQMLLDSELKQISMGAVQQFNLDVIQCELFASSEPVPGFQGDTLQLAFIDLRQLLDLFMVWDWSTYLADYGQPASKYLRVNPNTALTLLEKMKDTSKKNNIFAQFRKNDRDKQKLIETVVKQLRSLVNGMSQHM

Assays:
Experiment in all cases: co-IP
[1] = target: GFP-Rab11a (UniProt P62491)
[2] = target: T1, wild-type (WT) GRAB-GFP (UniProt Q8TBN0)
T1 sequence: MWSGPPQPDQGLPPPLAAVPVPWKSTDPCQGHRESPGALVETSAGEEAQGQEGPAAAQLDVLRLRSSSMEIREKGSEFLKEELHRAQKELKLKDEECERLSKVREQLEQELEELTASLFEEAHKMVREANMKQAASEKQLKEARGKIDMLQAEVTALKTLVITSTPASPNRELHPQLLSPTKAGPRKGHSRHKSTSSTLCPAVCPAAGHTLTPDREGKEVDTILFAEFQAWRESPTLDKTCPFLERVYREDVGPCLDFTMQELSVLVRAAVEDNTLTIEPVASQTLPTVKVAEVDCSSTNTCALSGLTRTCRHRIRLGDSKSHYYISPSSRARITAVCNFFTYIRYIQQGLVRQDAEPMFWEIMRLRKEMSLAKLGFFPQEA

[3] = target: T2, GFP-Rab3a (UniProt P20336)
T2 sequence: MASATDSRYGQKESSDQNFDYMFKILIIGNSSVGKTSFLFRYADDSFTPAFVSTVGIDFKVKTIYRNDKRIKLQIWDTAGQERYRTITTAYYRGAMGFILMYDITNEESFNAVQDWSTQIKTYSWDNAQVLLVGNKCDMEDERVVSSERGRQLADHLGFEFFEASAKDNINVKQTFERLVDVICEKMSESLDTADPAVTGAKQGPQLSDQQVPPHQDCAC

[4] = target: mCherry-Rab11a (UniProt P62491)

- binding [1]: binds
Molecule: Sec8 (from UniProt Q96A65 1-974)

- binding [4]: binds
B1: GFP-Rab3a (protein, UniProt P20336 1-220)
chain: T2 sequence

- binding [4]: binds
B2: wild-type (WT) GRAB-GFP (protein, UniProt Q8TBN0 1-382)
chain: T1 sequence

The remaining lines, values behind:

Molecule: Exo70 (from UniProt Q9UPT5 1-735)
- binding [1]: binds

Molecule: Sec15a-myc (from UniProt Q8TAG9 1-804)
- binding [1]: binds

Molecule: mCherry-Rab11a (from UniProt P62491 1-216)
- binding [2]: binds
- binding [3]: binds
